# Source: publication PMC5412921
# Sequences of proteins named here, by UniProt entry; tags and fusion partners are left off.
# UniProt Q04207: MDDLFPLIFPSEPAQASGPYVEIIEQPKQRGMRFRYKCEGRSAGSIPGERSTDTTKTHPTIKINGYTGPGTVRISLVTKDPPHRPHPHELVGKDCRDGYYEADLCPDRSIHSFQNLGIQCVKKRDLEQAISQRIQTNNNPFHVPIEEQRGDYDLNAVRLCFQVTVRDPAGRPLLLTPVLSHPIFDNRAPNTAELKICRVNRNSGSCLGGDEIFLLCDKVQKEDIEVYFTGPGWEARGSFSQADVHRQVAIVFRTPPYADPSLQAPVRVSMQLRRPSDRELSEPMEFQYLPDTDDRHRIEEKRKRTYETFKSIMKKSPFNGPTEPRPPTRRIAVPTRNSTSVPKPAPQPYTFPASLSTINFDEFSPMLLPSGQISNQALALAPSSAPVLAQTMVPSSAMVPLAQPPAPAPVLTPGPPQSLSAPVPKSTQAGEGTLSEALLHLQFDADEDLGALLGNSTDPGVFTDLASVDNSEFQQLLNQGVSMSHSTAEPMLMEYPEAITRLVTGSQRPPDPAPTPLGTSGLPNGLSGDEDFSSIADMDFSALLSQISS
# UniProt P42227: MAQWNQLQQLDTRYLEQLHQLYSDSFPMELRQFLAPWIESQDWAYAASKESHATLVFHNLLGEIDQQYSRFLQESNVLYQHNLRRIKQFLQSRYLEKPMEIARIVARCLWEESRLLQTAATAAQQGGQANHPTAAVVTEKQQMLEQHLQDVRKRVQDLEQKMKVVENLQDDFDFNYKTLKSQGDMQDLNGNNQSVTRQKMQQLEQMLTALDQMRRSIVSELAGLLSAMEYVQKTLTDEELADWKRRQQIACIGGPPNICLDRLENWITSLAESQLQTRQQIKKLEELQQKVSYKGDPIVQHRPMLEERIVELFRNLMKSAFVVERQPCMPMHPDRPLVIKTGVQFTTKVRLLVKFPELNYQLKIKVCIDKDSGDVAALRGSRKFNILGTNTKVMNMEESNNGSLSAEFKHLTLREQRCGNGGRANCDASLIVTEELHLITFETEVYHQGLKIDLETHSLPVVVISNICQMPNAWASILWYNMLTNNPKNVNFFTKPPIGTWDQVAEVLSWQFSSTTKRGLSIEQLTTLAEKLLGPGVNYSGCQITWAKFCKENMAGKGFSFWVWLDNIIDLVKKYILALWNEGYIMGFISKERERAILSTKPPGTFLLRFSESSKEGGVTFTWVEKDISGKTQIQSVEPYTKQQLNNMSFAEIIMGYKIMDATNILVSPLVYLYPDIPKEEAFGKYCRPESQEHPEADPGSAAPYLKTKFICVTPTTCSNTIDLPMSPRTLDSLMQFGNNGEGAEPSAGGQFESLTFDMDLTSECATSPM
# No constants are given. Whether binding was seen depends on the method and setting. In cells and extracts the contact can be indirect. Some binding calls cover weakened binding; strength is not graded here.
# How the values were obtained:
# [1] = biological target: p65 subunit of NF-κB (mouse (endogenous in C2C12)) (UniProt Q04207); assay: co-IP; nuclear and cytoplasmic fractions of C2C12 myotubes treated or not with IFNγ/TNFα; antibody (total STAT3, p65 or IgG control) on protein A Sepharose beads, lysates overnight at 4°C, washed once with low salt and twice with medium salt buffer; Western blot for total STAT3, pY-STAT3 and p65
# [2] = biological target: Signal transducer and activator of transcription 3 (STAT3) (mouse (endogenous in C2C12)) (UniProt P42227); assay: as above
Substance,binding [1],binding [2]
STAT3 phosphorylated on Tyr705 (pY-STAT3) (from UniProt P42227 1-770),binds,
Signal transducer and activator of transcription 3 (STAT3) (from UniProt P42227 1-770),binds,
p65 subunit of NF-κB (from UniProt Q04207 1-549),,binds
